Source: the supplement of paper PMC8728848
The list shows a part of the results.

Key:
Assay in all cases: glycan array binding signal (z-score within array); higher = stronger binding
Settings in all cases: glycan notation: IUPAC condensed, linker removed
Gal(a1-2)Gal = biological target: Gal(a1-2)Gal
How it was run: (§1)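 The binding signal is a Z-score computed within each array. Data were drawn from 3228 arrays in the Consortium for Functional Glycomics database, restricted to those with a known protein sequence. Scores were averaged over arrays of the same protein sequence at different concentrations or buffers, and over linkers, and negative values can be taken as non-binding.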

Gal(a1-3)Gal = biological target: Gal(a1-3)Gal
How it was run: as §1

Gal(a1-3)Gal(b1-3)GlcNAc = biological target: Gal(a1-3)Gal(b1-3)GlcNAc
How it was run: as §1

Gal(a1-3)Gal(b1-4)Glc = biological target: Gal(a1-3)Gal(b1-4)Glc
How it was run: as §1

Gal(a1-3)Gal(b1-4)GlcNAc = biological target: Gal(a1-3)Gal(b1-4)GlcNAc
How it was run: as §1

[1] = biological target: Gal(a1-3)Gal(b1-4)[Fuc(a1-3)]GlcNAc
How it was run: as §1

[2] = biological target: Gal(a1-3)Gal(b1-4)[Fuc(a1-3)]GlcNAc(b1-2)Man(a1-3)[Gal(a1-3)Gal(b1-4)[Fuc(a1-3)]GlcNAc(b1-2)Man(a1-6)]Man(b1-4)GlcNAc(b1-4)GlcNAc
How it was run: as §1

Gal(a1-3)GalNAc = biological target: Gal(a1-3)GalNAc
How it was run: as §1

[3] = biological target: Gal(a1-3)[Gal(a1-4)]Gal(b1-4)GlcNAc
How it was run: as §1

Gal(a1-4)Gal(b1-4)Glc = biological target: Gal(a1-4)Gal(b1-4)Glc
How it was run: as §1

Gal(a1-4)Gal(b1-4)GlcNAc = biological target: Gal(a1-4)Gal(b1-4)GlcNAc
How it was run: as §1

[4] = biological target: Gal(a1-4)Gal(b1-4)GlcNAc(b1-3)Gal(b1-4)Glc
How it was run: as §1

Gal(a1-4)GlcNAc = biological target: Gal(a1-4)GlcNAc
How it was run: as §1

Gal(a1-6)Glc = biological target: Gal(a1-6)Glc
How it was run: as §1

Gal(b1-2)Gal = biological target: Gal(b1-2)Gal
How it was run: as §1

Gal(b1-3)Gal = biological target: Gal(b1-3)Gal
How it was run: as §1

Gal(b1-3)Gal(b1-4)GlcNAc = biological target: Gal(b1-3)Gal(b1-4)GlcNAc
How it was run: as §1

[5] = biological target: Gal(b1-3)Gal(b1-4)GlcNAc(b1-2)Man(a1-3)[Gal(b1-3)Gal(b1-4)GlcNAc(b1-2)Man(a1-6)]Man(b1-4)GlcNAc(b1-4)GlcNAc
How it was run: as §1

Gal(b1-3)GalNAc = biological target: Gal(b1-3)GalNAc
How it was run: as §1

[6] = biological target: Gal(b1-3)GalNAc(a1-3)[Fuc(a1-2)]Gal(b1-4)Glc
How it was run: as §1

[7] = biological target: Gal(b1-3)GalNAc(a1-3)[Fuc(a1-2)]Gal(b1-4)GlcNAc
How it was run: as §1

[8] = biological target: Gal(b1-3)GalNAc(b1-3)Gal(a1-4)Gal(b1-4)Glc
How it was run: as §1

[9] = biological target: Gal(b1-3)GalNAc(b1-4)Gal(b1-4)Glc
How it was run: as §1

[10] = biological target: Gal(b1-3)GalNAc(b1-4)[Neu5Ac(a2-3)]Gal(b1-4)Glc
How it was run: as §1

Gal(b1-3)GlcNAc = biological target: Gal(b1-3)GlcNAc
How it was run: as §1

[11] = biological target: Gal(b1-3)GlcNAc(b1-2)Man(a1-3)[Gal(b1-3)GlcNAc(b1-2)Man(a1-6)]Man(b1-4)GlcNAc(b1-4)GlcNAc
How it was run: as §1

[12] = biological target: Gal(b1-3)GlcNAc(b1-2)Man(a1-3)[Gal(b1-3)GlcNAc(b1-2)Man(a1-6)]Man(b1-4)GlcNAc(b1-4)[Fuc(a1-6)]GlcNAc
How it was run: as §1

[13] = biological target: Gal(b1-3)GlcNAc(b1-3)Gal(b1-3)GlcNAc
How it was run: as §1

[14] = biological target: Gal(b1-3)GlcNAc(b1-3)Gal(b1-4)Glc
How it was run: as §1

[15] = biological target: Gal(b1-3)GlcNAc(b1-3)Gal(b1-4)GlcNAc
How it was run: as §1

[16] = biological target: Gal(b1-3)[Fuc(a1-4)]GlcNAc
How it was run: as §1

[17] = biological target: Gal(b1-3)[Fuc(a1-4)]GlcNAc(b1-2)Man(a1-3)[Gal(b1-3)[Fuc(a1-4)]GlcNAc(b1-2)Man(a1-6)]Man(b1-4)GlcNAc(b1-4)GlcNAc
How it was run: as §1

[18] = biological target: Gal(b1-3)[Fuc(a1-4)]GlcNAc(b1-2)Man(a1-3)[Gal(b1-3)[Fuc(a1-4)]GlcNAc(b1-2)Man(a1-6)]Man(b1-4)GlcNAc(b1-4)[Fuc(a1-6)]GlcNAc
How it was run: as §1

[19] = biological target: Gal(b1-3)[Fuc(a1-4)]GlcNAc(b1-3)Gal(b1-3)[Fuc(a1-4)]GlcNAc
How it was run: as §1

[20] = biological target: Gal(b1-3)[Fuc(a1-4)]GlcNAc(b1-3)Gal(b1-4)GlcNAc
How it was run: as §1

[21] = biological target: Gal(b1-3)[Fuc(a1-4)]GlcNAc(b1-3)Gal(b1-4)[Fuc(a1-3)]GlcNAc
How it was run: as §1

[22] = biological target: Gal(b1-3)[GlcNAc(b1-6)]GalNAc
How it was run: as §1

[23] = biological target: Gal(b1-3)[Neu5Ac(a2-6)]GalNAc
How it was run: as §1

[24] = biological target: Gal(b1-3)[Neu5Ac(a2-6)]GlcNAc(b1-6)Gal(b1-4)Glc
How it was run: as §1

[25] = biological target: Gal(b1-3)[Neu5Ac(b2-6)]GalNAc
How it was run: as §1

[26] = biological target: Gal(b1-4)GalNAc(a1-3)[Fuc(a1-2)]Gal(b1-4)GlcNAc
How it was run: as §1

[27] = biological target: Gal(b1-4)GalNAc(b1-3)[Fuc(a1-2)]Gal(b1-4)GlcNAc
How it was run: as §1

Gal(b1-4)Glc = biological target: Gal(b1-4)Glc
How it was run: as §1

Gal(b1-4)Glc6S = biological target: Gal(b1-4)Glc6S
How it was run: as §1

Gal(b1-4)GlcNAc = biological target: Gal(b1-4)GlcNAc
How it was run: as §1

[28] = biological target: Gal(b1-4)GlcNAc(a1-6)Gal(b1-4)GlcNAc
How it was run: as §1

[29] = biological target: Gal(b1-4)GlcNAc(b1-2)Man(a1-3)Man(b1-4)GlcNAc(b1-4)GlcNAc
How it was run: as §1

[30] = biological target: Gal(b1-4)GlcNAc(b1-2)Man(a1-3)[Gal(b1-4)GlcNAc(b1-2)Man(a1-6)]Man(b1-4)GlcNAc(b1-4)GlcNAc
How it was run: as §1

[31] = biological target: Gal(b1-4)GlcNAc(b1-2)Man(a1-3)[Gal(b1-4)GlcNAc(b1-2)Man(a1-6)]Man(b1-4)GlcNAc(b1-4)[Fuc(a1-6)]GlcNAc
How it was run: as §1

[32] = biological target: Gal(b1-4)GlcNAc(b1-2)Man(a1-3)[Man(a1-6)]Man(b1-4)GlcNAc(b1-4)GlcNAc
How it was run: as §1

[33] = biological target: Gal(b1-4)GlcNAc(b1-2)Man(a1-6)Man(b1-4)GlcNAc(b1-4)GlcNAc
How it was run: as §1

[34] = biological target: Gal(b1-4)GlcNAc(b1-2)Man(a1-6)[Man(a1-3)]Man(b1-4)GlcNAc(b1-4)GlcNAc
How it was run: as §1

[35] = biological target: Gal(b1-4)GlcNAc(b1-2)[Gal(b1-4)GlcNAc(b1-4)]Man(a1-3)[Gal(b1-4)GlcNAc(b1-2)Man(a1-6)]Man(b1-4)GlcNAc(b1-4)GlcNAc
How it was run: as §1

[36] = biological target: Gal(b1-4)GlcNAc(b1-3)Gal(b1-3)GlcNAc
How it was run: as §1

[37] = biological target: Gal(b1-4)GlcNAc(b1-3)Gal(b1-4)Glc
How it was run: as §1

[38] = biological target: Gal(b1-4)GlcNAc(b1-3)Gal(b1-4)GlcNAc
How it was run: as §1

[39] = biological target: Gal(b1-4)GlcNAc(b1-3)Gal(b1-4)GlcNAc(b1-3)Gal(b1-4)GlcNAc
How it was run: as §1

[40] = biological target: Gal(b1-4)GlcNAc(b1-3)Gal(b1-4)[Fuc(a1-3)]GlcNAc(b1-3)Gal(b1-4)[Fuc(a1-3)]GlcNAc
How it was run: as §1

[41] = biological target: Gal(b1-4)GlcNAc(b1-3)GalNAc
How it was run: as §1

[42] = biological target: Gal(b1-4)GlcNAc(b1-3)[Gal(b1-4)GlcNAc(b1-6)]Gal(b1-4)GlcNAc
How it was run: as §1

B1: 4F2hc (Homo sapiens), P08195 (protein)
chain: WWHTGALYRIGDLQAFQGHGAGNLAGLKGRLDYLSSLKVKGLVLGPIHKNQKDDVAQTDLLQIDPNFGSKEDFDSLLQSAKKKSIRVILDLTPNYRGENSWFSTQVDTVATKVKDALEFWLQAGVDGFQVRDIENLKDASSFLAEWQNITKGFSEDRLLIAGTNSSDLQQILSLLESNKDLLLTSSYLSDSGSTGEHTKSLVTQYLNATGNRWCSWSLSQARLLTSFLPAQLLRLYQLMLFTLPGTPVFSYGDEIGLDAAALPGQPMEAPVMLWDESSFPDIPGAVSANMTVKGQSEDPGSLLSLFRRLSDQRSKERSLLHGDFHAFSAGPGLFSYIRHWDQNERFLVVLNFGDVGLSAGLQASDLPASASLPAKADLLLSTQPGREEGSPLELERLKLEPHEGLLLRFPYAA
Gal(a1-2)Gal
  glycan array binding signal (z-score): 0.638
Gal(a1-3)Gal
  glycan array binding signal (z-score): 0.67
Gal(a1-3)Gal(b1-3)GlcNAc
  glycan array binding signal (z-score): -1.03
Gal(a1-3)Gal(b1-4)Glc
  glycan array binding signal (z-score): 0.34
Gal(a1-3)Gal(b1-4)GlcNAc
  glycan array binding signal (z-score): 0.442
[1]
  glycan array binding signal (z-score): -1.16
[2]
  glycan array binding signal (z-score): -0.107
Gal(a1-3)GalNAc
  glycan array binding signal (z-score): -0.267
[3]
  glycan array binding signal (z-score): -0.32
Gal(a1-4)Gal(b1-4)Glc
  glycan array binding signal (z-score): -0.504
Gal(a1-4)Gal(b1-4)GlcNAc
  glycan array binding signal (z-score): -0.258
[4]
  glycan array binding signal (z-score): -0.618
Gal(a1-4)GlcNAc
  glycan array binding signal (z-score): -0.668
Gal(a1-6)Glc
  glycan array binding signal (z-score): -0.645
Gal(b1-2)Gal
  glycan array binding signal (z-score): 0.091
Gal(b1-3)Gal
  glycan array binding signal (z-score): 2.32
Gal(b1-3)Gal(b1-4)GlcNAc
  glycan array binding signal (z-score): 0.2
[5]
  glycan array binding signal (z-score): -0.486
Gal(b1-3)GalNAc
  glycan array binding signal (z-score): -0.548
[6]
  glycan array binding signal (z-score): -0.658
[7]
  glycan array binding signal (z-score): -0.507
[8]
  glycan array binding signal (z-score): 0.03
[9]
  glycan array binding signal (z-score): -1.07
[10]
  glycan array binding signal (z-score): 0.252
Gal(b1-3)GlcNAc
  glycan array binding signal (z-score): 0.637
[11]
  glycan array binding signal (z-score): 3.66
[12]
  glycan array binding signal (z-score): -1.06
[13]
  glycan array binding signal (z-score): 0.209
[14]
  glycan array binding signal (z-score): 2.15
[15]
  glycan array binding signal (z-score): 0.959
[16]
  glycan array binding signal (z-score): 0.971
[17]
  glycan array binding signal (z-score): 0.766
[18]
  glycan array binding signal (z-score): -0.531
[19]
  glycan array binding signal (z-score): 1.47
[20]
  glycan array binding signal (z-score): -0.798
[21]
  glycan array binding signal (z-score): -1.11
[22]
  glycan array binding signal (z-score): -0.662
[23]
  glycan array binding signal (z-score): 0.104
[24]
  glycan array binding signal (z-score): 0.327
[25]
  glycan array binding signal (z-score): 0.036
[26]
  glycan array binding signal (z-score): -1.1
[27]
  glycan array binding signal (z-score): 0.058
Gal(b1-4)Glc
  glycan array binding signal (z-score): 0.428
Gal(b1-4)Glc6S
  glycan array binding signal (z-score): -0.496
Gal(b1-4)GlcNAc
  glycan array binding signal (z-score): -0.318
[28]
  glycan array binding signal (z-score): -0.593
[29]
  glycan array binding signal (z-score): 0.986
[30]
  glycan array binding signal (z-score): -0.662
[31]
  glycan array binding signal (z-score): -0.525
[32]
  glycan array binding signal (z-score): -0.077
[33]
  glycan array binding signal (z-score): -0.567
[34]
  glycan array binding signal (z-score): -0.997
[35]
  glycan array binding signal (z-score): 0.263
[36]
  glycan array binding signal (z-score): -0.941
[37]
  glycan array binding signal (z-score): -0.257
[38]
  glycan array binding signal (z-score): -0.278
[39]
  glycan array binding signal (z-score): 0.458
[40]
  glycan array binding signal (z-score): 0.933
[41]
  glycan array binding signal (z-score): 1.13
[42]
  glycan array binding signal (z-score): 1.39
